{
  "source": "PubChem BioAssay AID540276",
  "about": "(National Center for Advancing Translational Sciences (NCATS), 2011)",
  "note": "“And” between values parts separate entries of the source, which are not always exact repeats. Equal entries are not always repeated. In all, about 300,000 compounds went through this assay and about 5,400 (1.8%) were called active. Inconclusive results, whose numbers are uncertain, are shown with a selection of clear calls. The call rests on the fitted dose curve; tested in HEK293 cells. Potencies of inconclusive entries are doubtful fits and often do not repeat. Potency means the concentration at half of the fitted maximal effect.",
  "data": [
    {"experiment": "qHTS for inhibitors of binding or entry into cells for Marburg Virus", "settings": "Marburg virus pseudotyped entry inhibition, cell reporter; series mostly up to 37.8 µM", "values": [
      {"smiles": "O=C(NNc1c(Cl)cccc1Cl)c1cccs1", "Potency": "inconclusive: 5.62 µM [activator, single point]"},
      {"smiles": "CCC(C)n1c(SCC(=O)Nc2cc(C(C)(C)C)nn2-c2ccccc2)nc2ccccc2c1=O", "note": "(stereo unspecified)", "Potency": "inactive"},
      {"smiles": "CCN1C(=O)[C@@H]2[C@H]3[C@H](O)[C@H](O)CC(=NOC[C@H]4O[C@H](c5ccccc5)C=C[C@H]4Oc4ccc(OC)cc4)[C@@H]3CC[C@H]2C1=O", "Potency": "inactive"},
      {"smiles": "O=C(c1c(F)c(F)c(F)c(F)c1F)N(Cc1ccccc1)Cc1ccccc1", "Potency": "inconclusive: 35.5 µM [inhibitor, single point]"},
      {"smiles": "CC1=C(C(=O)O)N2C(=O)[C@@H](NC(=O)C(N)C3=CCC=CC3)[C@H]2SC1", "note": "(stereo partly specified)", "Potency": "inactive"},
      {"smiles": "CC1=NN(c2ccccc2)C(=O)C1/C=C1\\C(=O)NC(=O)N(c2ccc(C)c(C)c2)C1=O", "note": "(stereo unspecified)", "Potency": "inconclusive: 0.112 µM [activator, full curve, poor fit]"},
      {"smiles": "Cc1cccc(NC(=O)C2CCCN(c3nc(C)cc(C)n3)C2)c1", "note": "(stereo unspecified)", "Potency": "inactive"},
      {"smiles": "CCOc1ccc(NC(=S)N2CCN(S(C)(=O)=O)CC2)cc1", "Potency": "inactive"},
      {"smiles": "Cc1cc(C)nc(Nc2n[nH]c(COc3ccc(Cl)cc3)n2)n1", "Potency": "inconclusive: 1.3 µM [inhibitor, partial curve]"},
      {"smiles": "Nc1c(C(=O)NC2CCCC2)c2nc3ccccc3nc2n1N", "Potency": "inactive"},
      {"smiles": "COc1nc(N/N=C/c2ccccc2F)nc(N2CCCCC2)n1", "Potency": "inactive"},
      {"smiles": "COCCCNC(=O)CC(NCCCOC)C(=O)O", "note": "(stereo unspecified)", "Potency": "inactive"},
      {"smiles": "COc1ccc(C2CC(=O)c3cnc(NC(=O)c4ccccc4)nc3C2)c(OC)c1", "note": "(stereo unspecified)", "Potency": "inconclusive: 3.55 µM [inhibitor, full curve]"},
      {"smiles": "Cc1ccc(S(=O)(=O)CCC(=O)c2ccc(F)cc2)cc1", "Potency": "inconclusive: 35.5 µM [inhibitor, single point]"},
      {"smiles": "Cc1ccc(S(=O)(=O)N2CCN(CC(=O)NC3CCCc4ccccc43)CC2)cc1C", "note": "(stereo unspecified)", "Potency": "inconclusive: 29.1 µM [inhibitor, single point] and inconclusive: 10 µM [inhibitor, partial curve, poor fit]"},
      {"smiles": "C=C(C)C1CC=C(C)/C(=N/NC(=O)c2ccccc2[N+](=O)[O-])C1", "note": "(stereo unspecified)", "Potency": "inconclusive: 35.5 µM [inhibitor, single point]"},
      {"smiles": "CCc1ccc(N2CC(C(=O)Nc3nc4ccc(S(C)(=O)=O)cc4s3)CC2=O)cc1", "note": "(stereo unspecified)", "Potency": "inactive"},
      {"smiles": "COc1cccc(CN2CCNC(=O)C2CC(=O)N(Cc2cnn(C)c2)C(C)C)c1", "note": "(stereo unspecified)", "Potency": "inconclusive: 14.1 µM [activator, single point]"},
      {"smiles": "CCN(c1cccc(C)c1)C(C(=O)Nc1ccc(OC)cc1)c1cc2c(cc1[N+](=O)[O-])OCO2", "note": "(stereo unspecified)", "Potency": "inconclusive: 29.1 µM [activator, single point]"},
      {"smiles": "CCCn1c(-c2cccc(F)c2)nc2c1c(=O)[nH]c(=O)n2Cc1ccccc1", "Potency": "inactive"},
      {"smiles": "CCOc1cccc(C(=O)N(Cc2ccc(C(C)C)cc2)C2CCS(=O)(=O)C2)c1", "note": "(stereo unspecified)", "Potency": "inconclusive: 35.5 µM [inhibitor, single point]"},
      {"smiles": "COc1ccccc1C(=O)Nc1ccccc1OCc1cc(=O)n2cc(C)sc2n1", "Potency": "inactive"},
      {"smiles": "Cn1c(Cc2cccc3ccccc23)nnc1SCc1ccc([N+](=O)[O-])cc1", "Potency": "inconclusive: 1.26 µM [inhibitor, single point]"},
      {"smiles": "COc1cc(C(=O)NCc2nc(C)cs2)ccc1OC1CCN(C(C)=O)CC1", "Potency": "inconclusive: 11.2 µM [inhibitor, partial curve, poor fit]"},
      {"smiles": "O=[N+]([O-])c1cc(C(F)(F)F)ccc1NC1CCN(Cc2ccccc2)CC1", "Potency": "inconclusive: 2.82 µM [inhibitor, partial curve, poor fit]"},
      {"smiles": "CCCN1CCN(CCCNC(=O)c2cc3c(s2)-c2c(C)cccc2OC3)CC1", "Potency": "inconclusive: 20 µM [inhibitor, single point]"},
      {"smiles": "O=[N+]([O-])c1ccc(/C=C/C2=NN(c3ccccc3)C(c3ccco3)C2)o1", "note": "(stereo unspecified)", "Potency": "inactive"},
      {"smiles": "C=CCN1CCc2c(cc(O)c(O)c2Cl)C(c2ccccc2)C1", "note": "(stereo unspecified)", "Potency": "inconclusive: 18.3 µM [inhibitor, single point] and inconclusive: 2 µM [inhibitor, partial curve, poor fit]"},
      {"smiles": "CCCCN(CCCC)C(=O)c1nsnc1-c1ccccc1O", "Potency": "inconclusive: 2.06 µM [inhibitor, partial curve, poor fit]"},
      {"smiles": "N#Cc1cccc(NC(=O)c2nc(-c3ccccc3)n(-c3ccccc3)n2)c1", "Potency": "inconclusive: 35.5 µM [inhibitor, single point]"},
      {"smiles": "Cc1ccc(S(=O)(=O)NCc2ccncc2)cc1", "Potency": "inconclusive: 2.51 µM [inhibitor, full curve]"},
      {"smiles": "COC(=O)c1cc2sccc2n1Cc1c(C)cc(C)cc1C", "Potency": "inconclusive: 1 µM [inhibitor, full curve, poor fit]"},
      {"smiles": "O=C(NNC1=NCCCCC1)Nc1cccc(Cl)c1", "Potency": "inconclusive: 2.51 µM [activator, full curve]"},
      {"smiles": "COc1cccc(/C=N/NC(=O)c2ccc(=O)n(C)c2)c1OC", "Potency": "inactive"},
      {"smiles": "CCOC(=O)N1CCc2c(sc3c2c(=O)n(CCc2ccccc2)c(=O)n3CC(=O)Nc2ccccc2C)C1", "Potency": "inactive"},
      {"smiles": "COc1cccc(N/C(SCc2cccc([N+](=O)[O-])c2)=C(/C#N)C(N)=O)c1", "Potency": "inconclusive: 25.1 µM [inhibitor, single point]"},
      {"smiles": "O=C(CC(=O)c1ccccc1)Nc1ccc(Cl)cc1", "Potency": "inconclusive: 7.08 µM [inhibitor, partial curve, poor fit]"},
      {"smiles": "CCOCC(=O)Nc1ccc([N+](=O)[O-])cc1Cl", "Potency": "inconclusive: 35.5 µM [activator, single point]"},
      {"smiles": "COc1ccc(-c2nc3c(c(=O)[nH]c(=O)n3Cc3ccccc3)n2Cc2ccccc2)cc1", "Potency": "inconclusive: 9.2 µM [inhibitor, partial curve]"},
      {"smiles": "CCCSc1nnc(NC(=O)c2cc(=O)c3ccccc3o2)s1", "Potency": "inconclusive: 5.62 µM [activator, single point]"},
      {"smiles": "CCCCOCCCn1c(N)c(C(=O)OC(C)COC)c2nc3ccccc3nc21", "note": "(stereo unspecified)", "Potency": "inconclusive: 25.1 µM [inhibitor, partial curve, poor fit]"},
      {"smiles": "COCCCn1c(Cc2csc(Nc3cccc(Cl)c3)n2)nnc1SCC(=O)OC1CCCCC1", "Potency": "inconclusive: 8.91 µM [inhibitor, partial curve, poor fit]"},
      {"smiles": "CC(CNC(=O)Cn1ccc2cc(S(=O)(=O)N3CCCC3)ccc21)c1ccccc1", "note": "(stereo unspecified)", "Potency": "inconclusive: 35.5 µM [inhibitor, single point]"},
      {"smiles": "O=C(CCS(=O)(=O)c1ccc(Cl)cc1)Nc1ccc(N2CCOCC2)cc1", "Potency": "inactive"},
      {"smiles": "Cc1cccc(C(=O)NCC(=O)OCc2cc(=O)n3ccsc3n2)c1", "Potency": "inactive"},
      {"smiles": "O=C(c1ccc(N2C(=O)C3C4CC(C(Br)C4Br)C3C2=O)cc1)N1CCCCC1", "note": "(stereo unspecified)", "Potency": "inactive"},
      {"smiles": "CCN(CC1CCCN(CCc2cccc(F)c2)C1)C(=O)c1cc2ccccc2o1", "note": "(stereo unspecified)", "Potency": "inconclusive: 15.8 µM [inhibitor, partial curve, poor fit]"},
      {"smiles": "Cc1ccc(Cl)cc1NC(=S)N(CCN(C)C)Cc1cccs1", "Potency": "inconclusive: 12.6 µM [inhibitor, partial curve, poor fit]"},
      {"smiles": "N#Cc1c(N2C(=O)C3C4C=CC(C4)C3C2=O)sc2c1CCC2", "note": "(stereo unspecified)", "Potency": "inconclusive: 3.55 µM [inhibitor, single point]"},
      {"smiles": "Cc1csc(=O)n1CCC(=O)OCC(=O)Nc1ccc(F)c(F)c1F", "Potency": "inactive"},
      {"smiles": "CCC(=O)Nc1ccc(F)c(Cl)c1", "Potency": "inactive"},
      {"smiles": "Cc1nc(SCC(=O)N2CCNC2=O)c2ccccc2n1", "Potency": "inconclusive: 1.41 µM [inhibitor, full curve, poor fit]"},
      {"smiles": "Cc1ccc(-c2n[nH]c(=S)n2/N=C/c2c(C)[nH]n(-c3ccccc3)c2=O)cc1", "Potency": "inconclusive: 35.5 µM [activator, single point]"},
      {"smiles": "Cc1ccc(NC(=O)Cc2noc3ccccc23)cc1", "Potency": "inconclusive: 2.06 µM [activator, full curve, poor fit]"},
      {"smiles": "COc1ccc(Br)cc1C(=O)Nc1cccc(C)c1", "Potency": "inconclusive: 10 µM [activator, single point]"},
      {"smiles": "CC(C)Cn1cc(C(=O)N2CCN(c3ccccn3)CC2)c2c3ccccc3n(C)c2c1=O", "Potency": "active: 16.4 µM"},
      {"smiles": "CC(C)(C)C1CCC(=NOC(=O)c2ccc(F)cc2)CC1", "note": "(stereo unspecified)", "Potency": "inactive"},
      {"smiles": "CCOc1ccc(C(=O)N2CC(=O)Nc3ccc(F)cc3C2c2ccc(F)cc2)cc1", "note": "(stereo unspecified)", "Potency": "inconclusive: 11.2 µM [inhibitor, partial curve]"},
      {"smiles": "COc1ccc(OC)c(-c2csc(NC(=O)Cc3cccs3)n2)c1", "Potency": "inactive"},
      {"smiles": "O=C(COc1ccccc1)N1CCN(S(=O)(=O)c2cccs2)CC1", "Potency": "inconclusive: 6.51 µM [inhibitor, single point]"},
      {"smiles": "CSc1ccc(/C=N/NC(=O)CN2CCN(Cc3ccccc3Cl)CC2)cc1", "Potency": "inconclusive: 5.62 µM [activator, single point]"},
      {"smiles": "CCOc1ccc(OCC)c(-c2c(=O)n(OCc3ccc(C(C)(C)C)cc3)c3ccccc3[n+]2[O-])c1", "Potency": "inconclusive: 10.3 µM [inhibitor, partial curve]"},
      {"smiles": "Cc1ccc(NC(=O)c2ccccc2NS(=O)(=O)c2ccc(F)cc2)cc1S(=O)(=O)N1CCCCC1", "Potency": "inconclusive: 8.2 µM [inhibitor, partial curve, poor fit]"},
      {"smiles": "Cc1ccc(Nc2nc(-c3ccc(O)c(O)c3)cs2)nc1", "Potency": "inconclusive: 20.6 µM [inhibitor, single point]"},
      {"smiles": "Cc1ccc(-c2nc(=O)[nH]c3ccc(Br)cc23)cc1", "Potency": "inactive"},
      {"smiles": "CC(C)(C)c1ccc(CN2C(=O)c3ccccc3S2(=O)=O)cc1", "Potency": "inconclusive: 35.5 µM [inhibitor, single point]"}
    ]}
  ]
}
